Test results as given in publication PMC12490859.
These are yes or no findings as the source states them, for the method shown. Binding seen in cells or lysates may run through a third protein. Some binding calls cover weakened binding; strength is not graded here. Each block holds one binder with its values, some of them ahead of it.

The chains behind the UniProt entries cited, without tags or fusion partners.
UniProt Q62420: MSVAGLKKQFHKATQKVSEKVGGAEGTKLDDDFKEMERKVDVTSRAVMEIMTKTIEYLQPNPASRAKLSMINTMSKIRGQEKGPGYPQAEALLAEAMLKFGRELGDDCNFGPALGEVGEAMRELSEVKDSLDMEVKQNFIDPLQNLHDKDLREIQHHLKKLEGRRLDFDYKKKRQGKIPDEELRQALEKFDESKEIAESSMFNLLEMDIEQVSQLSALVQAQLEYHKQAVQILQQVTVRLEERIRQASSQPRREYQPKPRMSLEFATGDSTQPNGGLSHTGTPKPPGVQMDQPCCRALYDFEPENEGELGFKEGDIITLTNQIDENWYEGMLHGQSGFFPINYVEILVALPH

Columns and labels:
[1] = target: T1, GABAAR α1 subunit (mouse (endogenous in mouse brain)), P62812; experiment: co-IP; immunoisolation from the membrane fraction (P100) of mouse hippocampi, buffer without detergent (Tris-HCl 20 mM, HEPES 10 mM, NaCl 150 mM, sucrose 250 mM, EDTA 0.5 mM), Dynabeads Protein A coupled with rabbit anti-EndoA1 or rabbit anti-GABAAR α1; immunoblotting; also from Sh3gl2+/+ and Sh3gl2-/- brains; conditions: remark: other sources report otherwise
T1 chain: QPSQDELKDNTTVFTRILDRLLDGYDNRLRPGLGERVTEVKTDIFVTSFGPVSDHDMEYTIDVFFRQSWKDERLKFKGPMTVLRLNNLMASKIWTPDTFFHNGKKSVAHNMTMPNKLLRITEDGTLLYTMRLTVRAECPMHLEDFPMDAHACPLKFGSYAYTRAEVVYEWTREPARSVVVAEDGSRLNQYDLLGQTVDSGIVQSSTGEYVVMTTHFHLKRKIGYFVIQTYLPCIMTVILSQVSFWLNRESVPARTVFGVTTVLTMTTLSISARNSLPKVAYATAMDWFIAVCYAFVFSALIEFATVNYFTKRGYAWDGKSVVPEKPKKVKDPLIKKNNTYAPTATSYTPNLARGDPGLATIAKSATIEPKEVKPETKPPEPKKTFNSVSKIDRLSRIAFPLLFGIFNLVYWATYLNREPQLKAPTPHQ

[2] = target: endophilin A1 (mouse (endogenous in mouse brain)) (UniProt Q62420); experiment: co-IP; whole brain lysate of 8- to 10-week-old mice (1% NP-40, Tris-HCl 20 mM pH 7.4, NaCl 150 mM, EDTA 5 mM), anti-EndoA1 antibody or control IgG overnight at 4°C, Dynabeads Protein A; western blot

- binding [1]: binds
B1: gephyrin, Q8BUV3 1-769 (protein)
chain: MATEGMILTNHDHQIRVGVLTVSDSCFRNLAEDRSGINLKDLVQDPSLLGGTISAYKIVPDEIEEIKETLIDWCDEKELNLILTTGGTGFAPRDVTPEATKEVIEREAPGMALAMLMGSLNVTPLGMLSRPVCGIRGKTLIINLPGSKKGSQECFQFILPALPHAIDLLRDAIVKVKEVHDELEDLPSPPPPLSPPPTTSPHKQTEDKGVQCEEEEEEKKDSGVASTEDSSSSHITAAALAAKIPDSIISRGVQVLPRDTASLSTTPSESPRAQATSRLSTASCPTPKQIRRPDESKGVASRVGSLKARLPSCSSTYSVSEVQSRCSSKENILRASHSAVDITKVARRHRMSPFPLTSMDKAFITVLEMTPVLGTEIINYRDGMGRVLAQDVYAKDNLPPFPASVKDGYAVRAADGPGDRFIIGESQAGEQPTQTVMPGQVMRVTTGAPIPCGADAVVQVEDTELIRESDDGTEELEVRILVQARPGQDIRPIGHDIKRGECVLAKGTHMGPSEIGLLATVGVTEVEVNKFPVVAVMSTGNELLNPEDDLLPGKIRDSNRSTLLATIQEHGYPTINLGIVGDNPDDLLNALNEGISRADVIITSGGVSMGEKDYLKQVLDIDLHAQIHFGRVFMKPGLPTTFATLDIDGVRKIIFALPGNPVSAVVTCNLFVVPALRKMQGILDPRPTIIKARLSCDVKLDPRPEYHRCILTWHHQEPLPWAQSTGNQMSSRLMSMRSANGLLMLPPKTEQYVELHKGEVVDVMVIGRL

- binding [2]: binds
B2: gephyrin (protein, UniProt Q8BUV3 1-769)
chain: B1 chain
